Measured values as given in patent US20160312218A1, “SYSTEM FOR CO-DELIVERY OF POLYNUCLEOTIDES AND DRUGS INTO PROTEASE-EXPRESSING CELLS” (NORTHEASTERN UNIVERSITY, priority 2013, published 2016).

Tested on: siRNA
Experiment: Gel retardation assay (siRNA complexation)
Assay type: binding
Conditions: agarose gel, N/P 10, 20 and 40

Substance	nitrogen to phosphate ratio (N/P) needed to completely condense free siRNA
PEI (1800 Da)-1,2-dioleoyl-sn-glycero-3-phosphoethanolamine (DOPE) [PEI-PE, reference compound]	< 10
polyethylene glycol-peptide-polyethylenimine-1,2-dioleoyl-snglycero-3-phosphoethanolamine (GPLGIAGQ) [PEG-pp-PEI-PE]	40
